Some of these results come from one statement about several compounds together.
Tested on: various cancer cell lines
Experiment: cytotoxicity on various cell lines using crystal violet assay
Assay type: cell-based
Details: taxane in combination with piperlongumine vs taxane alone

Row | Compound | reduction of IC50 value
1 | CC(=O)O[C@H]1C(=O)[C@@]2(C)[C@H]([C@H](OC(=O)c3ccccc3)[C@]3(O)C[C@H](OC(=O)[C@H](O)[C@@H](NC(=O)c4ccccc4)c4ccccc4)C(C)=C1C3(C)C)[C@]1(OC(C)=O)CO[C@@H]1C[C@@H]2O [paclitaxel] | 3-5 times
2 | CC(=O)O[C@@]12CO[C@@H]1C[C@H](O)[C@@]1(C)C(=O)[C@H](O)C3=C(C)[C@@H](OC(=O)[C@H](O)[C@@H](NC(=O)OC(C)(C)C)c4ccccc4)C[C@@](O)([C@@H](OC(=O)c4ccccc4)[C@H]21)C3(C)C [DTX, docetaxel] | 3-5 times
